Results on 2 substances are retold here after PMC8080724.

Chains of the proteins cited; added tags and fusions are not shown.
UniProt P18266: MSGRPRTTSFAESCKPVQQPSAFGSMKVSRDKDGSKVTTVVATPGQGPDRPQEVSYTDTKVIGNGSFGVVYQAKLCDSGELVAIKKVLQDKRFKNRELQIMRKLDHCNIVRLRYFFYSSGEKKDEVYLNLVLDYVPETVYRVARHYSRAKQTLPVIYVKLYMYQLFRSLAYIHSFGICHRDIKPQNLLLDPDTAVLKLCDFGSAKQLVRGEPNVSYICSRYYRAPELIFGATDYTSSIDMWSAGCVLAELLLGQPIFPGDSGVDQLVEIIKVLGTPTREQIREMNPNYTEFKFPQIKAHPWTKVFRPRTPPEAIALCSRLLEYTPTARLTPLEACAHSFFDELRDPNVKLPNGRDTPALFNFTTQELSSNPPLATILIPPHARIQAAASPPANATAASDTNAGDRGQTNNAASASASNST
UniProt P49841: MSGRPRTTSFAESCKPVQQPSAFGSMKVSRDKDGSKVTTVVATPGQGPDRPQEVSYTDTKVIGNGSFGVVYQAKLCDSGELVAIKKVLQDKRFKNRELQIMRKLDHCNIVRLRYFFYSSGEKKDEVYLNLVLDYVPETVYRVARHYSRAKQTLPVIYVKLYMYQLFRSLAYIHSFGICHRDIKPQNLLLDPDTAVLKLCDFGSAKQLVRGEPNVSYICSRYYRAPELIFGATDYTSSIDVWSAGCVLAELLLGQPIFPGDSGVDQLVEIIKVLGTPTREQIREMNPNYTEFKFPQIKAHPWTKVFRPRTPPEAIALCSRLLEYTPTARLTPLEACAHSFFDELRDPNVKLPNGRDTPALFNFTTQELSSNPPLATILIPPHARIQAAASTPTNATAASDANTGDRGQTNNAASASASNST

Experiment [1] concerns the target T1, HA-tagged full-length ULK1 WT (mouse) (UniProt O70405).
T1 sequence: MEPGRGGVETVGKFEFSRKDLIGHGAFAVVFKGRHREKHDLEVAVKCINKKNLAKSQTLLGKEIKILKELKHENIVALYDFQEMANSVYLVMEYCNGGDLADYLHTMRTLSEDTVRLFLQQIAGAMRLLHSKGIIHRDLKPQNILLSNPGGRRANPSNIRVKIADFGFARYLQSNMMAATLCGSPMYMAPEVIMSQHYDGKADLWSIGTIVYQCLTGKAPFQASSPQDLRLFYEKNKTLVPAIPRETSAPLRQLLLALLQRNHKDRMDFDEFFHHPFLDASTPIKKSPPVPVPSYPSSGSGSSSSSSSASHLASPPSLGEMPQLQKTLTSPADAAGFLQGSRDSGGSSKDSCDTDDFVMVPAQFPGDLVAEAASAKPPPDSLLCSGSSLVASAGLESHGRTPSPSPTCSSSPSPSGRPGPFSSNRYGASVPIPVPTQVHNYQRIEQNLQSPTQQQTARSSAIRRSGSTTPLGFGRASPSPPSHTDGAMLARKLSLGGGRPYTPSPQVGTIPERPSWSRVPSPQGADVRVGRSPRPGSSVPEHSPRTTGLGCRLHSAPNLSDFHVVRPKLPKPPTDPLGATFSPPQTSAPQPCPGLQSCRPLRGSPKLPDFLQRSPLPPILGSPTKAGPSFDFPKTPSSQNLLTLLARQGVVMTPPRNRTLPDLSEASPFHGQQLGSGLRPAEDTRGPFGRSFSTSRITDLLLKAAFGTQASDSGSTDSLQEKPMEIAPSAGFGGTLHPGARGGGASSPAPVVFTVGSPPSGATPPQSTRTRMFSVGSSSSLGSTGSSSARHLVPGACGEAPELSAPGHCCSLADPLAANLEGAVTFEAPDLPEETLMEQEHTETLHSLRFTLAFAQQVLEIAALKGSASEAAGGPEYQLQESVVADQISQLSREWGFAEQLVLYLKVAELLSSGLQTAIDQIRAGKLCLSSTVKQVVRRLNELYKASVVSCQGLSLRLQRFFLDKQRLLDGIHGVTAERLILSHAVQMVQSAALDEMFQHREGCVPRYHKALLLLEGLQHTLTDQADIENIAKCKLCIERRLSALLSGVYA
Description: proximity ligation; fixed HCN cells transfected with HA-ULK1, primary antibodies against HA-tag and GSK3B, after insulin withdrawal; PLA dots per cell counted.

Experiment [2] addresses T2, HA-ULK1 F2 (GABARAP-binding region within the Serine/Proline-Rich Domain, 279–430) (mouse) (UniProt O70405).
T2 sequence: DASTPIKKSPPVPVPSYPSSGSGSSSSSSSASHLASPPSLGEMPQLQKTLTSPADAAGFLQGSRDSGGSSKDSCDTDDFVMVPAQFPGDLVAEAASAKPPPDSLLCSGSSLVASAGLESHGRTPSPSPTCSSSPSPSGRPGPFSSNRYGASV
Description: co-IP; HA-ULK1 truncation mutants expressed in HEK293 cells, precipitated with anti-HA antibody, blot for endogenous GSK3B.

Results are given in words; binding and its absence hold for the method and conditions named. In cells and extracts the contact can be indirect. Some results given as binding are weak or reduced against the parent protein; the word gives no strength. Tags and fused reporters may be left off the sequences shown.

Turning to “glycogen synthase kinase 3 beta (GSK3B), endogenous in rat HCN cells (from UniProt P18266 1-420) (enzyme)”, the binding result in experiment [1] is reported as “binds”. Take “glycogen synthase kinase 3 beta (GSK3B), endogenous in HEK293 cells (from UniProt P49841 1-420) (enzyme)”: in experiment [2], the binding entry is “binds”.
